PMC9491610
Results are given in words; binding and its absence hold for the method and conditions named. Binding seen in cells or lysates may run through a third protein. Some results given as binding are weak or reduced against the parent protein; the word gives no strength.

Legend:
Experiment in all cases: co-IP; Stu2-HA precipitated with anti-HA magnetic beads from 90 mg cryo-milled yeast extract in 1x PBS pH 7.4 with 0.1% Tween; precipitate blotted with anti γ-tubulin (anti-Tub4)
[1] = target: T1, Stu2-K870R-3xHA (S. cerevisiae) (UniProt P46675)
T1 sequence: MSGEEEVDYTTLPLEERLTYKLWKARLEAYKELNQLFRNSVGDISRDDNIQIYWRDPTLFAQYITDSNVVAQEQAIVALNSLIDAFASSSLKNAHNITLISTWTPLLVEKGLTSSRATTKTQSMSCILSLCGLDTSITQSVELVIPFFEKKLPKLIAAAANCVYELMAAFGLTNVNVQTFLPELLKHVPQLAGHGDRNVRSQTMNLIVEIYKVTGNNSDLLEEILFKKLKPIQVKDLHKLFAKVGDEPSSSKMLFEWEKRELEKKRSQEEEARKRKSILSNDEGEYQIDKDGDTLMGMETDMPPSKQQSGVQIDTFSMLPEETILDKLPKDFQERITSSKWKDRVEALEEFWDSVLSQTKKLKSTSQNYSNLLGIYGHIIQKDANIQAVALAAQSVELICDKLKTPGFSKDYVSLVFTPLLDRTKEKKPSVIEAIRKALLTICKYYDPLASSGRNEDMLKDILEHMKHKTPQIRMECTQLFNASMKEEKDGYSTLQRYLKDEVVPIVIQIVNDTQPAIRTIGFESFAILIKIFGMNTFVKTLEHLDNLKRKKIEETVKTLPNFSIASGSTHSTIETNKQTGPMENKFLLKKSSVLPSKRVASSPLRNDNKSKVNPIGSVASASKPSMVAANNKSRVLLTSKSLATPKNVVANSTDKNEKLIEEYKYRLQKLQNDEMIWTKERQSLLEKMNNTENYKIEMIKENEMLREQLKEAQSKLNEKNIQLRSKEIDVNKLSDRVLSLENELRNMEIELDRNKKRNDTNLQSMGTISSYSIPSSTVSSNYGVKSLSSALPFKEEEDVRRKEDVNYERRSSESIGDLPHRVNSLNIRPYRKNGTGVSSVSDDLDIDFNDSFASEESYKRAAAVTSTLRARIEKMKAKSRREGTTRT

[2] = target: T2, Stu2-K252R-3xHA (S. cerevisiae) (UniProt P46675)
T2 sequence: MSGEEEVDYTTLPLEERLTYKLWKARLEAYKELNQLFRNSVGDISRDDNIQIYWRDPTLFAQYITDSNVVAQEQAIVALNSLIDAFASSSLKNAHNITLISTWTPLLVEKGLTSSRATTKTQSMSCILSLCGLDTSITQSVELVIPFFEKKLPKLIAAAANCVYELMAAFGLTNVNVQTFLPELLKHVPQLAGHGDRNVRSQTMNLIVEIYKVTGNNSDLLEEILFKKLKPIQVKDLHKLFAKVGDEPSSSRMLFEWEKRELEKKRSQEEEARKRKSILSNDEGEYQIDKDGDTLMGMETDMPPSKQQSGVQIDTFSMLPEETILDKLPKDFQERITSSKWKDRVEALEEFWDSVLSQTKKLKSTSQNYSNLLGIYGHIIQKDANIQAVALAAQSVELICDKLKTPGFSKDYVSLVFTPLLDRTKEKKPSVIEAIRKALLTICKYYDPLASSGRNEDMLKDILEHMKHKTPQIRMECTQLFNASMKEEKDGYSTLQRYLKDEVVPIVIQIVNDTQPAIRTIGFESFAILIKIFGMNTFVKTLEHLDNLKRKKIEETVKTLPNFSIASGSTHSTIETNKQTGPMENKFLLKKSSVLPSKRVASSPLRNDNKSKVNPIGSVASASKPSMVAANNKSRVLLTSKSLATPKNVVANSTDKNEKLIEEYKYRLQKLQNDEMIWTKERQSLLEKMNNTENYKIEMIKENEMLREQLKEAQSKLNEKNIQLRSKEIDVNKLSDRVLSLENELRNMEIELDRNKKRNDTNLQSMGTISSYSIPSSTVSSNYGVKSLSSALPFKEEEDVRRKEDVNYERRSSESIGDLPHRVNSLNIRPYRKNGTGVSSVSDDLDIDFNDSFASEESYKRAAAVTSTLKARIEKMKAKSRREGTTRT

[3] = target: T3, Stu2-K252Q-3xHA (S. cerevisiae) (UniProt P46675)
T3 sequence: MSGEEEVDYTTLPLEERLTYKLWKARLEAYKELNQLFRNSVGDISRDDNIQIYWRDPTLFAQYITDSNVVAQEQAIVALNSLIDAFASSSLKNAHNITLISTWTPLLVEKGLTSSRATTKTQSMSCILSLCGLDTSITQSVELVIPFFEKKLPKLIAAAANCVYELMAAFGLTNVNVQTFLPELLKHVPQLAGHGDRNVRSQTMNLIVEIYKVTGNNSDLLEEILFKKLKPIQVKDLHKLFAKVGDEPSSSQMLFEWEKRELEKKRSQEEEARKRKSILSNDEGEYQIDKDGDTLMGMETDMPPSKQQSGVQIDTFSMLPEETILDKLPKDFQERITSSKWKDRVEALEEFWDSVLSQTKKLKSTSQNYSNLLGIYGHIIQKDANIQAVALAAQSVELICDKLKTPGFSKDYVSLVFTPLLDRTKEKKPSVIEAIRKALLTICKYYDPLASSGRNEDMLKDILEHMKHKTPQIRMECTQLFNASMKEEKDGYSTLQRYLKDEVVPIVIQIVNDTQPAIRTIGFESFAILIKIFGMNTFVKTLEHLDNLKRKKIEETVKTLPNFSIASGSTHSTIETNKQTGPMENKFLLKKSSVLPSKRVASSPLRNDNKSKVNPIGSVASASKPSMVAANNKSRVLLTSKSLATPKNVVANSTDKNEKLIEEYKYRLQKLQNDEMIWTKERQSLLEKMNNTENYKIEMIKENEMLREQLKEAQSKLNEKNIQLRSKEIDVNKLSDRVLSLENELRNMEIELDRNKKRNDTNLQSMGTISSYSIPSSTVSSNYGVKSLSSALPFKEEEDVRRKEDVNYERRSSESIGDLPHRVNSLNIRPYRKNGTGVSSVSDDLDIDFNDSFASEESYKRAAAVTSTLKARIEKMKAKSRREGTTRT

- binding [1]: binds
- binding [2]: binds
- binding [3]: binds
B1: γ-tubulin (Tub4) (protein, UniProt P53378 1-473)
chain: MGGEIITLQAGQCGNHVGKFLWSQLAKEHAIGTDGLSQLPDSSTERDDDTKPFFRENSRNKFTPRAIMMDSEPSVIADVENTFRGFFDPRNTWVASDGASAGNSWANGYDIGTRNQDDILNKIDKEIDSTDNFEGFQLLHSVAGGTGSGLGSNLLEALCDRYPKKILTTYSVFPARSSEVVVQSYNTILALRRLIEDSDATVVFDNASLLNISGKVFRNPNIDLQHTNQLISTIISSVTNSIRFPSYMYSSMSSIYSTLIPSPELHFLSPSFTPFTSDYIHDDIAHKGHSSYDVMLDLLDPSNSLVSTAMNNPTYFNVYNTIIGNVEPRQISRAMTKLQQRIKFPSWSSSAMHVNIGRRSPYLPLQPNENEVSGMMLSNMSTVVNVFENACNTFDKVFAKGAFLNNYNVGDLFQSMQNVQDEFAESREVVQSLMEDYVAAEQDSYLDDVLVDDENMVGELEEDLDADGDHKLV
